Results as given in publication PMC6613617.

Tests used:
[1] = system: POLD1 WT (catalytic subunit of Pol delta) + POLD2 + POLD3 + POLD4 + PCNA; experiment: EMSA; settings: copurified with PCNA, EMSA: 20 mM Tris-HCl pH 8.0, 20 mM KCl, 1 mM EDTA, 0.5 mM TCEP, 20 nM probe, 10-80 nM Pol delta, 25 C 30 min, 7% native PAGE, 0.5x TBE, recombinant protein
[2] = system: POLD1 WT (catalytic subunit of Pol delta) + POLD2 + POLD3 + POLD4; experiment: EMSA; settings: without PCNA, EMSA: 20 mM Tris-HCl pH 8.0, 20 mM KCl, 1 mM EDTA, 0.5 mM TCEP, 20 nM probe, 10-80 nM Pol delta, 25 C 30 min, 7% native PAGE, 0.5x TBE, recombinant protein
[3] = label: 5'-fluorescein (FAM), single-stranded DNA
[4] = label: 5'-fluorescein (FAM) on strand 1

Sequence	binding result [1, 3]	binding result [2, 3]	binding result [1, 4]	binding result [2, 4]
GTTTCTTCAATCTTCATCATACAGGTCAG [ssDNA probe (Fig 3E,F)]	binds	binds		
GTTTCTTCAATCTTCATCATACAGGTCAG / CTGACCTGTATGATGAAGATTGAAAGAAAC [dsDNA probe (Fig 3C,D)]			binds	binds

The exact form of at least one protein or probe is not confirmed. At least one verdict was read from the data and is not stated in words by the source.
